In this assay the test system is CD2F1 mice, ip Colon 26 adenocarcinoma, median survival T/C. As to the kind of experiment: NCI In Vivo Anticancer Drug Screen. Data for tumor model Colon 26 Adenocarcinoma (intraperitoneal) in CD2F1 (CDF1) mice. As to conditions: T/C endpoint: median survival time, schedule: Q04DX003 (ip), vehicle: saline, higher T/C = longer survival. How it is done:
The antitumor activity of compounds was measured in mice bearing transplantable tumors. Survival or tumor size were measured and the results are expressed as the measurement made in the treated group (T) divided by the measurement made in the vehicle treated control group (C). The tumor model used in this assay is Colon 26 Adenocarcinoma (intraperitoneal) in CD2F1 (CDF1) mice

T/C data for one molecule are collected here from PubChem BioAssay AID210 (DTP/NCI, 2004).

The list shows only some results of the screen, not a fair sample: it gathers some chemical classes. Other doses and runs of a compound may be missing. T/C: endpoint of the treated group in % of that of the vehicle group. Where survival is the endpoint, this PubChem deposit counts one and a half times the control or more as active, and values a quarter to a half above the control carry no call in these data; other NCI protocols may use other cut-offs. Some entries show no survivor count and are marked so; the dose need not have been tolerated. Schedules are NCI's codes, taken here to give the interval after Q, in days (D) or hours (H), and the number of doses after X.

Take `CN(CCCl)CCCl`: the T/C is 165 % of control [survivor count not shown] (dose: 0.06 mg/kg/injection); 231 % of control [survivor count not shown] (dose: 0.12 mg/kg/injection); 211 % of control [survivor count not shown] (dose: 0.25 mg/kg/injection); 291 % of control [survivor count not shown] (dose: 0.5 mg/kg/injection); 109 % of control [survivor count not shown] (dose: 1.0 mg/kg/injection).
